This is an account of results in paper doi:10.1101/149484.

Amino acid sequences for entries named in this document (tags omitted).
UniProt P35631: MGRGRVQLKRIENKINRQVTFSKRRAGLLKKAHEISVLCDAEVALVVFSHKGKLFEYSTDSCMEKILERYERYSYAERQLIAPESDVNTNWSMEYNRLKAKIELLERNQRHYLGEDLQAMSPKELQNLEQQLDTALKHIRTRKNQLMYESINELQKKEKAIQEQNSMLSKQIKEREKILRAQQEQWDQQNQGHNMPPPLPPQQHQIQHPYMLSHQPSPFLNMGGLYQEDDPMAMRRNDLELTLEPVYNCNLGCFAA
UniProt P29382: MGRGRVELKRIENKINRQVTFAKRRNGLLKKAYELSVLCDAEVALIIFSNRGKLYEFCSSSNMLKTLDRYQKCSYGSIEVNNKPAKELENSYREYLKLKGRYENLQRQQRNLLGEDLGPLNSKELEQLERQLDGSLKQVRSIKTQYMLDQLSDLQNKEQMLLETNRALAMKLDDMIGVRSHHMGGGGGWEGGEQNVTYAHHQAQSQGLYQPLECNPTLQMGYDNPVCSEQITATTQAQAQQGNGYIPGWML
UniProt P29384: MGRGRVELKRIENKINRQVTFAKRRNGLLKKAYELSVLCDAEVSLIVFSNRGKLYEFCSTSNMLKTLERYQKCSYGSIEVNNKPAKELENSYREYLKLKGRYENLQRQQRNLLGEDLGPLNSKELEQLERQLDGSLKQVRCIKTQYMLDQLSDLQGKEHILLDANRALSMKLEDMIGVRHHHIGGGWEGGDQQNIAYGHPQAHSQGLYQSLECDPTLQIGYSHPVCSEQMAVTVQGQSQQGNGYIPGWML
UniProt O22456: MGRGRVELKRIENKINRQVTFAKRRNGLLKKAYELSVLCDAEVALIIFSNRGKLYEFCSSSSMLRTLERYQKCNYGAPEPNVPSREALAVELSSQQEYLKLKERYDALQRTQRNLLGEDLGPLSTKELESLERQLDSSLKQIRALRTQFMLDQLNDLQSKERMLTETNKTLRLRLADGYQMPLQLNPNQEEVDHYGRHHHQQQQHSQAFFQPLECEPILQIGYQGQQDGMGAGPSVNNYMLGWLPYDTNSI
UniProt P29383: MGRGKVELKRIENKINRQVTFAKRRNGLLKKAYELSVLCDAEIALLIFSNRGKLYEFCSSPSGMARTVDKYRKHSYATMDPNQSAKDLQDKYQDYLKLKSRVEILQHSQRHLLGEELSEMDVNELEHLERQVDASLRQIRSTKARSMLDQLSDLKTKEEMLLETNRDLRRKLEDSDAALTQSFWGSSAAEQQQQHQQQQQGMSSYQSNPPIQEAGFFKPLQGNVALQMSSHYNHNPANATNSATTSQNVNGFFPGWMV
UniProt Q8RYD9: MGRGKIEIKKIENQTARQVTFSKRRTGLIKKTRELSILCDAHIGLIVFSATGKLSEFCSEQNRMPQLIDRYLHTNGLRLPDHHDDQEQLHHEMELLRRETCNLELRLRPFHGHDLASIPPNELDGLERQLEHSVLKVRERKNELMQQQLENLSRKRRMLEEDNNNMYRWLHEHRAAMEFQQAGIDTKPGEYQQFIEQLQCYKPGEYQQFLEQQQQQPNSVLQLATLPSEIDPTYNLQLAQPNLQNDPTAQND

What all share (test): two-hybrid
One experiment addresses AP1 (A. thaliana) (UniProt P35631).
Experiment [1] deals with SEP1 from A. thaliana (A. thaliana) (UniProt P29382).
The next experiment deals with SEP2 (A. thaliana) (UniProt P29384).
The target in experiment [2] is SEP3 from A. thaliana (A. thaliana) (UniProt O22456).
Experiment [3] addresses SEP4 from A. thaliana (A. thaliana) (UniProt P29383).

No constants are given. Whether binding was seen depends on the method and setting. Some entries that bind do so weakly or less than the wild type.

Regarding “ARABIDOPSIS BSISTER (ABS) from A. thaliana (from UniProt Q8RYD9 1-252)”, the binding result is listed as “binds” with AP1 (A. thaliana); “binds” in experiment [1]; “no binding” in the experiment with SEP2 (A. thaliana); “binds” in experiment [2]; “binds” in experiment [3].
